About 2,000 (0.49%) of roughly 410,000 compounds were called active. This list was built around the results that the source calls inconclusive (neither active nor inactive); the mix of calls is not that of the screen. Calls follow the shape of the full dose curve; tested in HEK293 reporter line. Potencies beside an inconclusive call are fits to weak or partial responses and may not hold up.
Assay: qHTS Assay for Foot and Mouth Disease Virus Antivirals: Primary Screen against the MLPCN compound library; also: nearly all actives have a fitted effect of over 55% in size
Details: FMDV antiviral cell-based qHTS; series mostly up to 57.9 µM
Potency is read from the fitted curve at half-maximal effect.

Row | Structure (SMILES) | Potency
1 | O=S(=O)(c1ccc(Cl)cc1)c1nnn2c1nc(NC1CCCCC1)c1sccc12 | inactive
2 | Cc1nn(-c2ccccc2)c(Cl)c1CN(C(=O)CCl)c1cccc2ccccc12 | inconclusive: 28.2 µM [inhibitor, partial curve, poor fit]
3 | Clc1ccc(CNc2nc(CN3CCOCC3)nc3scc(-c4ccccc4)c23)cc1 | inconclusive: 14.1 µM [inhibitor, partial curve, poor fit]
4 | Cn1c(SC2=CS(=O)(=O)c3ccccc32)nc2ccccc21 | inconclusive: 28.2 µM [inhibitor, partial curve, poor fit]
5 | OCCCCCNc1ncnc2ccccc12 | inactive
6 | O=[N+]([O-])c1ccc(-n2nncc2-c2ccc(Cl)cc2)cc1 | inconclusive: 22.4 µM [inhibitor, partial curve, poor fit]
7 | O=S(=O)(Nc1ccccc1Cl)c1ccc2[nH]c(=S)oc2c1 | inactive
8 | O=C(COc1ccc(/C=N/NC(=O)c2cc3ccccc3o2)cc1Br)Nc1ccccc1 | inconclusive: 22.4 µM [inhibitor, single point]
9 | CC(NC(=O)C1CCN(CCOc2ccc(Cl)cc2)CC1)c1cccc2ccccc12 (stereo not given) | inactive
10 | O=c1[nH]c2ccccc2n1CCCSCCCn1c(=O)[nH]c2ccccc21 | inconclusive: 20 µM [inhibitor, partial curve, poor fit]
11 | CN(C)S(=O)(=O)c1ccc(C(=O)N2CCC(c3nc4ccccc4o3)CC2)cc1 | inactive
12 | NC(=O)C1=C(c2ccccc2)c2ccccc2C1=O | inconclusive: 31.6 µM [inhibitor, partial curve, poor fit]
13 | O=C(CSC1=NCCN1)Nc1cccc([N+](=O)[O-])c1 | inconclusive: 17.8 µM [inhibitor, partial curve, poor fit]
14 | O=C(NCCc1ccc(Cl)cc1)c1ccc2c(c1)N(Cc1ccccc1)CCS2 | inconclusive: 2.24 µM [inhibitor, full curve]
15 | CCOc1cc(/C=C2\C(=O)ON=C2c2ccccc2)cc(Br)c1O | inconclusive: 11.2 µM [inhibitor, partial curve, poor fit]
16 | O=C(CCS(=O)(=O)c1ccc(Br)cc1)N1CCN(c2ccccc2F)CC1 | inactive
17 | COc1ccccc1CNc1ncnc2ccc(-c3cccnc3)cc12 | inconclusive: 15.8 µM [inhibitor, single point]
18 | CCn1c(=O)cc(SCC(=O)N2CCN(Cc3ccc4c(c3)OCO4)CC2)c2ccccc21 | inconclusive: 39.8 µM [inhibitor, partial curve, poor fit]
19 | CCCCCCCCCn1c2c(c(=N)c3c1CCC3)CCCC2 | inconclusive: 10 µM [inhibitor, full curve, poor fit]
20 | Cn1c(/C=C/c2ccc(Br)cc2)c([N+](=O)[O-])c(=O)n(C)c1=O | inconclusive: 15.8 µM [inhibitor, partial curve, poor fit]

Row | Structure (SMILES) | Potency
21 | COc1ccc(N(C)S(=O)(=O)c2cccc(C(=O)OCC(=O)N3CC(C)CC(C)C3)c2)cc1 (stereo not given) | inconclusive: 31.6 µM [inhibitor, partial curve, poor fit]
22 | Cc1oc(-c2ccc(Cl)cc2)nc1CN1CCCC(C(=O)N2CCN(C(=O)c3ccco3)CC2)C1 (stereo not given) | inconclusive: 14.1 µM [inhibitor, partial curve, poor fit]
23 | C[C@H]1CN([C@@H](C)CO)C(=O)c2cc(NC(=O)C3CCCCC3)ccc2O[C@H]1CN(C)Cc1ccc(-c2ccccc2)cc1 | inactive
24 | Cc1ccn2c(Nc3c(C)cccc3C)c(-c3ccsc3)nc2c1 | inconclusive: 11.2 µM [inhibitor, partial curve, poor fit]
25 | O=C(NCc1ccccc1)c1nc(S(=O)(=O)Cc2ccc(F)cc2)ncc1Cl | inconclusive: 31.6 µM [inhibitor, partial curve, poor fit]
26 | Cc1cc(/C=C2/C(=O)NN(c3ccccc3)C2=O)c(C)n1-c1cccc(O)c1 | inconclusive: 44.7 µM [inhibitor, partial curve, poor fit]
27 | COc1ccc(C2=C(Nc3ccc(Br)c(C)c3)c3ccccc3C2=O)cc1 | inconclusive: 28.2 µM [inhibitor, partial curve, poor fit]
28 | CCn1c(N2CCN(CC(=O)Nc3cccc(C)c3C)CC2)nc2ccccc21 | inconclusive: 35.5 µM [inhibitor, partial curve, poor fit]
29 | CN(C)S(=O)(=O)c1ccc(-c2csc(N/N=C/c3ccco3)n2)cc1 | inconclusive: 6.31 µM [inhibitor, partial curve, poor fit]
30 | CC1CCc2c(c3ccccc3n2C(=O)CCl)C1 (stereo not given) | inconclusive: 20 µM [inhibitor, partial curve, poor fit]
31 | CCn1c(SCC(=O)N(C(C)C)C(C)C)nnc1-c1cc2ccccc2cc1O | inconclusive: 15.8 µM [inhibitor, partial curve]
32 | CCOc1ccccc1C(=O)N1CCC(c2nc3ccccc3o2)CC1 | inconclusive: 8.91 µM [inhibitor, partial curve]
33 | CCOC(=O)c1c(CN2CCOCC2)n(-c2ccccc2)c2cc(Br)c(OC)cc12 | inconclusive: 15.8 µM [inhibitor, partial curve]
34 | Cc1[nH]c2ccccc2c1NC(=O)CN1CCN(c2cccc(C(F)(F)F)c2)CC1 | inconclusive: 15.8 µM [inhibitor, partial curve, poor fit]
35 | COc1ccc(C)cc1N1C(=N)/C(=C2/Nc3ccccc3S2)C(c2ccccc2)C1=O (stereo not given) | inconclusive: 25.1 µM [inhibitor, single point]
36 | Cc1cc(Br)cn2c(Cc3ccsc3)c(-c3ccco3)nc12 | inconclusive: 35.5 µM [inhibitor, partial curve, poor fit]
37 | COc1cccc(NC(=O)CSc2c3c(nc4ccccc24)CCCC3)c1 | inconclusive: 31.6 µM [inhibitor, partial curve, poor fit]
38 | Cc1ccc(-c2cc(-c3ccccc3)no2)c(O)c1 | active: 5.01 µM
39 | Cc1cnc(NC(=O)C2COc3ccccc3O2)s1 (stereo not given) | inconclusive: 10 µM [inhibitor, partial curve, poor fit]
40 | COc1ccc(Br)cc1CNC(=O)CCc1nc(-c2ccc(C)cc2)no1 | inactive

3 records drawn at random from the list so far, as already listed:
Row | Structure (SMILES) | Potency
39 | Cc1cnc(NC(=O)C2COc3ccccc3O2)s1 (stereo not given) | inconclusive: 10 µM [inhibitor, partial curve, poor fit]
40 | COc1ccc(Br)cc1CNC(=O)CCc1nc(-c2ccc(C)cc2)no1 | inactive
36 | Cc1cc(Br)cn2c(Cc3ccsc3)c(-c3ccco3)nc12 | inconclusive: 35.5 µM [inhibitor, partial curve, poor fit]

From no. 32 up to 33, copied from above:
Row | Structure (SMILES) | Potency
32 | CCOc1ccccc1C(=O)N1CCC(c2nc3ccccc3o2)CC1 | inconclusive: 8.91 µM [inhibitor, partial curve]
33 | CCOC(=O)c1c(CN2CCOCC2)n(-c2ccccc2)c2cc(Br)c(OC)cc12 | inconclusive: 15.8 µM [inhibitor, partial curve]

(cont.)

Row | Structure (SMILES) | Potency
41 | CCOc1cc(/C=C2\N=C(SCC)SC2=O)cc([N+](=O)[O-])c1OC(C)=O | inconclusive: 14.1 µM [inhibitor, partial curve]
42 | O=C1COc2ccc(C(=O)CCl)cc2N1 | inconclusive: 25.1 µM [inhibitor, single point]
43 | Cc1ccc(S(=O)(=O)N(C)C)cc1NC(=O)CSc1nc2ccccc2[nH]1 | inactive
44 | Cc1ccc(CNC(=O)CS(=O)(=O)c2cn(CC(=O)N3CCOCC3)c3ccccc23)cc1 | inconclusive: 3.16 µM [inhibitor, full curve]
45 | COc1ccc(CNC(=O)c2ccc(-c3cccnc3)c3ccoc23)cc1OC | inconclusive: 22.4 µM [inhibitor, partial curve, poor fit]
46 | NC(=O)CC(NC(=O)c1ccc(Br)cc1)c1ccc(N2CCCCCCC2)c([N+](=O)[O-])c1 (stereo not given) | inconclusive: 12.6 µM [inhibitor, partial curve, poor fit]
47 | Cc1nc(-c2ccc(C(=O)Nc3ccccc3F)cc2)cs1 | inconclusive: 8.91 µM [inhibitor, partial curve, poor fit]
48 | CN(C)C(CNC(=O)c1ccc2[nH]c(=O)c(=O)[nH]c2c1)c1ccco1 (stereo not given) | inconclusive: 2.82 µM [inhibitor, full curve]
49 | CN(c1ccccc1)S(=O)(=O)c1cc(C(=O)OCC(=O)N2CCN(C(=O)c3ccco3)CC2)ccc1Cl | inconclusive: 25.1 µM [inhibitor, partial curve, poor fit]
50 | O=C(COC(=O)c1ccco1)Nc1cc(S(=O)(=O)N2CCOCC2)ccc1Cl | inconclusive: 14.1 µM [inhibitor, partial curve]
51 | COc1ccccc1N1CCN(c2ncnc3c2cnn3-c2ccc(C)cc2)CC1 | inactive
52 | Cc1cc(/C=N/NC(=O)c2cccs2)c(C)n1-c1ccccc1 | inconclusive: 12.6 µM [inhibitor, partial curve, poor fit]
53 | CCOc1ccc(NC(=O)c2cc3c(=O)n(C)c4ccccc4c3n2C)cc1 | inconclusive: 15.8 µM [inhibitor, partial curve, poor fit]
54 | CCCOc1ccccc1C(=O)N(Cc1cccc(Br)c1)C1CCS(=O)(=O)C1 (stereo not given) | inactive
55 | COc1ccc(OC)c(NC(=O)c2cccc(N3C(=O)C4C5C=CC(C6CC56)C4C3=O)c2)c1 (stereo not given) | inconclusive: 25.1 µM [inhibitor, partial curve, poor fit]
56 | Nc1nc(CN2CCN(c3ccccc3)CC2)nc(Nc2ccc(Cl)cc2)n1 | inconclusive: 31.6 µM [inhibitor, partial curve, poor fit]
57 | CCC1CN(C(=O)N2CCC(C(=O)NCc3ccccc3OC)CC2)c2cc(C)ccc2O1 (stereo not given) | inconclusive: 39.8 µM [inhibitor, single point]
58 | O=C(Nc1ncccc1O)c1ccc2ccccc2c1 | inconclusive: 17.8 µM [inhibitor, single point]
59 | COc1ccc(C2=NS(=O)(=O)N(C)C(C(=O)N3CCc4ccccc4C3)=C2)cc1OC | inconclusive: 28.2 µM [inhibitor, partial curve, poor fit]
60 | COc1ccc(/C=N/Nc2cc(C)nc(-n3nc(C)cc3C)n2)c(OC)c1 | inconclusive: 28.2 µM [inhibitor, single point]
